According to PubChem BioAssay AID1347076 (National Center for Advancing Translational Sciences (NCATS), 2019):
About 13,000 (3.2%) of roughly 400,000 compounds were called active. Inconclusive results, whose numbers are uncertain, are shown with a selection of clear calls. The call rests on the fitted dose curve; in most records, active means well fitted cell-killing curve with a large enough effect; inconclusive means small, poorly fitted or top-dose-only effect, or effect the other way; inactive means flat fitted curve, though single readings scatter. Potencies of inconclusive entries are doubtful fits and often do not repeat.

Experiment: qHTS assay for MDR1-selective chemotherapeutics: Primary screen using the drug-selected MDR subline cells KB-V1; further: nearly all actives have a fitted effect of over 60% in size
Conditions: KB-V1 MDR cells viability, CellTiter-Glo, 72 h; series mostly up to 46.1 µM
Method in brief: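 Drug-selected KB-V1 cells, grown in DMEM lacking phenol red with 10% FBS, receive compound titrations; after three days at 37 degrees C, surviving cell ATP is quantified by CellTiter-Glo luminescence and responses normalized and curve-fitted.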
Potency means the concentration at half of the fitted maximal effect.

Row | SMILES | Potency
1 | O=C(Nc1cccc(O)c1)c1cccc(S(=O)(=O)N2CCCCCC2)c1 | inconclusive: 23.1 µM [cytotoxic, single point]
2 | COc1ccc(/C=C2\SC(=O)N(CCNC(=O)Cc3coc4cc(OC)ccc34)C2=O)cc1 | active: 5.8 µM
3 | COc1cccc(NC(=O)NC2(C(=O)N3CCN(C)CC3)CCCCC2)c1 | inconclusive: 29.1 µM [rising, single point]
4 | CCCCn1c(=O)c2c(nc3n2CCCN3Cc2ccccc2)n(C)c1=O | inconclusive: 32.6 µM [cytotoxic, single point]
5 | COC(=O)c1cc(Br)c(=O)n(Cc2ccc(OC)c(OC)c2)c1 | inconclusive: 18.4 µM [cytotoxic, partial curve, poor fit]
6 | CCOC(=O)N1CCN(C(=O)C[C@@H]2C[C@@]3(C(=O)OCC)CCC=C3N(Cc3ccccc3)C2=O)CC1 | inconclusive: 9.2 µM [cytotoxic, partial curve, poor fit]
7 | COc1ccccc1CN1CCN(C2CCN(C(=O)NC(C)C)CC2)C(=O)C1=O | inconclusive: 23.1 µM [rising, single point]
8 | COCCN(C(=O)CSc1cc(C)c2ccccc2n1)c1c(N)n(CC(C)C)c(=O)[nH]c1=O | inconclusive: 29.1 µM [cytotoxic, single point]
9 | CCCn1c(=O)[nH]c(=O)c2c1nc(-c1ccc(C(F)(F)F)cc1)n2CCOC | inconclusive: 11.6 µM [cytotoxic, partial curve]
10 | Cc1cccc(NC(=O)COC(=O)CCc2c[nH]c3ccccc23)c1 | inconclusive: 16.4 µM [rising, single point]
11 | CCCc1c(O)nc(SCCN(CC)CC)n(C(=O)c2ccccc2)c1=O | inconclusive: 20.6 µM [rising, partial curve, poor fit]
12 | CC(C)Oc1cccc(C(=O)Nc2nnc([C@H]3C[C@H](O)[C@@H](CO)O3)s2)c1 | inactive
13 | Cn1c(N)cc(=O)n(Cc2ccccc2)c1=O | inactive
14 | O=C(COC(=O)CSCc1ccccc1)NCc1ccccc1 | inconclusive: 8.2 µM [rising, partial curve, poor fit]
15 | CCOC(=O)C1=C(C)N(C)C(=O)NC1c1c(C)nn(-c2ccccc2)c1C (stereo unspecified) | inconclusive: 6.51 µM [cytotoxic, partial curve]
16 | Cc1ccccc1Cn1ccc(NC(=O)c2onc(C)c2Cl)n1 | inconclusive: 9.2 µM [rising, partial curve, poor fit]
17 | Oc1ccccc1-c1cc(-c2ccc(F)cc2)n[nH]1 | inconclusive: 20.6 µM [cytotoxic, partial curve, poor fit]
18 | OC(CN1CCOCC1)c1ccc(F)cc1 (stereo unspecified) | inactive
19 | CCOC(=O)c1cc2c(=O)n3cccc(C)c3nc2n(CC(C)C)c1=NC(=O)c1ccco1 | inactive
20 | O=C(Cc1cccc2ccccc12)NNC(=O)Nc1ccc(Cl)cc1 | inconclusive: 29.1 µM [cytotoxic, single point]
21 | CCNc1nc(Oc2ccc(C(=O)OC)cc2)nc(SC)n1 | inactive

Row | SMILES | Potency
22 | O=C(CSc1nc(Cc2ccccc2)nc2ccccc12)Nc1nc2c(s1)CCCC2 | inconclusive: 18.4 µM [cytotoxic, partial curve, poor fit]
23 | Cc1ccc(CN=c2c([N+](=O)[O-])nn(-c3ccc(Cl)cc3)n2O)cc1 | inconclusive: 0.58 µM [rising, full curve, poor fit]
24 | Cc1cc(C)c(C(=O)CSc2n[nH]c(=O)n2C2CC2)cc1C | inactive
25 | O=C(CCNC(=O)c1ccccc1Cl)NNC(=O)c1ccccc1O | inconclusive: 16.4 µM [cytotoxic, partial curve, poor fit]
26 | CCOC(=O)c1c(NC(=O)c2cccc(N3C(=O)CCC3=O)c2)sc2c1CCN(CC)C2 | inactive
27 | CSc1cccc(CN2CCC(CO)(Cc3cccc(C(F)(F)F)c3)CC2)c1 | inconclusive: 10.3 µM [cytotoxic, partial curve]
28 | CC1(Cc2ccc3ccccc3n2)C(=O)Nc2ccc(OC(F)(F)F)cc21 (stereo unspecified) | inactive
29 | Cc1cccc(C)c1Cn1c(C)c(C(=O)NCc2ccc(C#N)cc2)sc1=O | active: 18.4 µM
30 | CCOC(=O)C1CCN(CC(=O)Nc2c(C(=O)OC)n(C)c3cccc(C)c23)CC1 | inconclusive: 13 µM [cytotoxic, partial curve, poor fit]
31 | CC(=O)c1ccc(OCCCC(=O)OCC(=O)N2CCN(S(=O)(=O)c3ccc(C)cc3C)CC2)cc1 | inconclusive: 25.9 µM [rising, single point]
32 | CC1CCc2[nH]c3ccc(C(=O)O)cc3c2C1 (stereo unspecified) | inconclusive: 29.1 µM [rising, single point]
33 | COc1ccc(C)cc1NC(=O)CC(=O)Nc1ccc2nc3n(c(=O)c2c1)CCCCC3 | inconclusive: 29.1 µM [cytotoxic, single point]
34 | CC[C@H](CO)Nc1nc(Nc2cccc(Cl)c2)c2ncn(C(C)C)c2n1 | inconclusive: 29.1 µM [cytotoxic, single point]
35 | COCCCNC(=S)N1CCN(c2nc(-c3ccc(Cl)cc3)cs2)CC1 | inconclusive: 20.6 µM [cytotoxic, partial curve, poor fit]
36 | CC(OC(=O)c1cccc(S(=O)(=O)N2CCCCCC2)c1)C(=O)Nc1ccc(S(N)(=O)=O)cc1 (stereo unspecified) | inconclusive: 7.31 µM [rising, partial curve]
37 | Cc1ccc(N(CN2CCCC2=O)C(=O)c2ccc(C)c(C)c2)cc1 | active: 8.2 µM
38 | O=C(Nc1ccc(N2CCOCC2)cc1)C1CCN(S(=O)(=O)c2cccc(C(F)(F)F)c2)CC1 | inconclusive: 23.1 µM [cytotoxic, single point]
39 | CC(C)N(Cc1cc2ccccc2[nH]c1=O)C(=O)C(C)(C)C | inactive
40 | O=C(Nc1ccc(N2CCCCC2)c(Cl)c1)c1ccc2c(c1)OCCO2 | inconclusive: 23.1 µM [cytotoxic, single point]
41 | CCCCCCCCN1C(=O)[C@H](CC(=O)N2CCN(C(=O)c3ccco3)CC2)C[C@@]2(C(=O)OC)CC(C)(C)CC=C12 | inconclusive: 14.6 µM [cytotoxic, partial curve]

Three entries from above, sorted by count of non-hydrogen atoms, high to low.
Row | SMILES | Potency
41 | CCCCCCCCN1C(=O)[C@H](CC(=O)N2CCN(C(=O)c3ccco3)CC2)C[C@@]2(C(=O)OC)CC(C)(C)CC=C12 | inconclusive: 14.6 µM [cytotoxic, partial curve]
11 | CCCc1c(O)nc(SCCN(CC)CC)n(C(=O)c2ccccc2)c1=O | inconclusive: 20.6 µM [rising, partial curve, poor fit]
1 | O=C(Nc1cccc(O)c1)c1cccc(S(=O)(=O)N2CCCCCC2)c1 | inconclusive: 23.1 µM [cytotoxic, single point]
